Results deposited as PubChem BioAssay AID1508597 (Cure First, 2020).
Assay: 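Survival screen with siRNA in ovarian cancer cells derived from patients, with or without rucaparib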 (primary screen). Cells: human ovarian carcinoma lines grown from tumours: OCI-P5x (papillary serous) and OCI-C5x (clear cell). Reagents: siRNA pool against human genes, 1.25 pmol siRNA per well. Timing: 72 h or 96 h, depending on the cell culture. Conditions: rucaparib 20 µM (about IC30) or vehicle, present until read-out. Rucaparib or vehicle: Rucaparib. Cell line: OCI-C5x (clear cell). Measured: 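ATP luminescence measured at 72 or 96 h according to the culture, then normalised and expressed as percent viability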. Direction: viability, normalised: higher = more viable cells remaining. Rule for the call: 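a well counts as a hit if its normalised viability is under 80 percent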. Calls: active = viability under 80%; inactive = viability 80% or more.
Shown is an unselected part of the about 2,100 reagents, under one of the conditions tested. 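Calls flag viability under 80% in either arm, not effects specific to rucaparib; the reference for percent is not stated.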 A number with no mark means an inactive call. The record does not give: the 100% reference.

Gene,technical replicate,"viability, normalised (%)"
CREBBP,1,34.4 (active)
CREBBP,2,31.3 (active)
CREBBP,3,26.9 (active)
SLC22A11,1,31.5 (active)
SLC22A11,2,23.9 (active)
SLC22A11,3,33.9 (active)
ACVR1,1,59.1 (active)
ACVR1,2,66.8 (active)
ACVR1,3,50.7 (active)
ACTR8,1,44.1 (active)
ACTR8,2,60.9 (active)
ACTR8,3,54.9 (active)
ARL8B,1,55.9 (active)
ARL8B,2,47.2 (active)
ARL8B,3,48 (active)

An excerpt taken from the entries so far, as a working copy:
Gene,technical replicate,"viability, normalised (%)"
ACVR1,1,59.1 (active)
ACVR1,2,66.8 (active)
ACVR1,3,50.7 (active)
ACTR8,1,44.1 (active)
ACTR8,2,60.9 (active)

The listing continues.
Gene,technical replicate,"viability, normalised (%)"
PIP4K2A,1,58.7 (active)
PIP4K2A,2,92
PIP4K2A,3,64.3 (active)
SH3KBP1,1,71.5 (active)
SH3KBP1,2,68.4 (active)
SH3KBP1,3,65.2 (active)
PNCK,1,55.2 (active)
PNCK,2,53 (active)
PNCK,3,58.7 (active)
EIF5A2,1,54.8 (active)
EIF5A2,2,69.9 (active)
EIF5A2,3,74.2 (active)
WAPL,1,79.5 (active)
WAPL,2,60.2 (active)
WAPL,3,56 (active)
GLI1,1,70.9 (active)
GLI1,2,56.3 (active)
GLI1,3,61.1 (active)
SIK2,1,35.8 (active)
SIK2,2,31.5 (active)
SIK2,3,29.1 (active)
CLDN10,1,37.9 (active)
CLDN10,2,51.2 (active)
CLDN10,3,51.6 (active)
